Measurements from patent publication US20030078381A1 (VANDERBILT UNIVERSITY, published 2003).
Results are given in words; binding and its absence hold for the method and conditions named. Some entries that bind do so weakly or less than the wild type. Tags and fused reporters may be left off the sequences shown.

Columns and labels:
[1] = target: T1, human IL-20R2, expressed alone on transfected cells (human) (UniProt Q6UXL0); experiment: cell surface AP binding studies on transfected Cos cells
T1 sequence (looked up): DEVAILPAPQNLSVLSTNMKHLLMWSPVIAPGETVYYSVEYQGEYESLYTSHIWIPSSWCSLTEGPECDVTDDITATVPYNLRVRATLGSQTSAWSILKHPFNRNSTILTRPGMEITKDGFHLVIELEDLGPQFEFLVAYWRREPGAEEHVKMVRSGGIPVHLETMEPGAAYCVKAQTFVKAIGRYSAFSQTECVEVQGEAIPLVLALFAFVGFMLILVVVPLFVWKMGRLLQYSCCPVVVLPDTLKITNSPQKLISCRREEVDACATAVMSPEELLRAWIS

[2] = target: T2, IL-20 receptor (IL-20R1/IL-20R2) heterodimeric receptor on co-transfected cells (human) (UniProt Q6UXL0); experiment: as above
T2 sequence 1: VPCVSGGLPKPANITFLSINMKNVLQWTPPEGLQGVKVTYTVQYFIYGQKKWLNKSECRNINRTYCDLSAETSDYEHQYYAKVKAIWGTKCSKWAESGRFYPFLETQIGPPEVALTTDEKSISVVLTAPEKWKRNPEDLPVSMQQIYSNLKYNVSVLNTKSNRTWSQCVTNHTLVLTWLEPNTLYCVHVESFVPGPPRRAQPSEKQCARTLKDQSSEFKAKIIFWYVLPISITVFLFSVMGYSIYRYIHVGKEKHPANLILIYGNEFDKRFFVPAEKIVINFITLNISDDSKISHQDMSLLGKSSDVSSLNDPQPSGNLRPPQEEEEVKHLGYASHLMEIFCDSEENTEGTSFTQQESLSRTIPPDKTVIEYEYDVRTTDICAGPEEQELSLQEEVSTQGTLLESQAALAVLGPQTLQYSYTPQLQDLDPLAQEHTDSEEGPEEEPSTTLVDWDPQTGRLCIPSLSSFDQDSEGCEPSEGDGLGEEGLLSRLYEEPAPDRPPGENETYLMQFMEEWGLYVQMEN
T2 sequence 2: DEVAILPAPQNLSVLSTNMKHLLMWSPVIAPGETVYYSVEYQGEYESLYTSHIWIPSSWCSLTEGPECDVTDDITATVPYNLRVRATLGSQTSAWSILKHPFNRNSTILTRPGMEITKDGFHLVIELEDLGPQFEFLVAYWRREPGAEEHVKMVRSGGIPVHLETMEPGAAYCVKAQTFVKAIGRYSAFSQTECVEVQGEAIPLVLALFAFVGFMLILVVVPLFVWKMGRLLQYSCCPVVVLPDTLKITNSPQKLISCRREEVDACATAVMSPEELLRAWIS

[3] = target: T3, IL-22R1/IL-20R2 heterodimeric receptor on co-transfected cells (human) (UniProt Q6UXL0); experiment: as above
T3 sequence 1: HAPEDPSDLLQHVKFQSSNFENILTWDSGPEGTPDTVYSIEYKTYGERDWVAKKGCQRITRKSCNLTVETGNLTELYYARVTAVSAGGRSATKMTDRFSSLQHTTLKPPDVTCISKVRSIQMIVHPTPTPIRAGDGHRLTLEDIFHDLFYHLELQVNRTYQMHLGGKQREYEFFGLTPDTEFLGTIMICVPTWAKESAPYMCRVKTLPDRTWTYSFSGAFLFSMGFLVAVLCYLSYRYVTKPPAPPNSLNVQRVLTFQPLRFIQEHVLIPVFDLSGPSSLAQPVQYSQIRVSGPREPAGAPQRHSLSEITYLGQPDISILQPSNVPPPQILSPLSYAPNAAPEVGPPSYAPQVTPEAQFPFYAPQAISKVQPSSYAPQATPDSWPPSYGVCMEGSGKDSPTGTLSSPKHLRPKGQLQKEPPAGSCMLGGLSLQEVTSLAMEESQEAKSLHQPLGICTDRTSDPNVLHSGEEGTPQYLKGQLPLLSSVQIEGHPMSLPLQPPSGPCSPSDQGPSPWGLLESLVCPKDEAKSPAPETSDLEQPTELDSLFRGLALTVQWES
T3 sequence 2: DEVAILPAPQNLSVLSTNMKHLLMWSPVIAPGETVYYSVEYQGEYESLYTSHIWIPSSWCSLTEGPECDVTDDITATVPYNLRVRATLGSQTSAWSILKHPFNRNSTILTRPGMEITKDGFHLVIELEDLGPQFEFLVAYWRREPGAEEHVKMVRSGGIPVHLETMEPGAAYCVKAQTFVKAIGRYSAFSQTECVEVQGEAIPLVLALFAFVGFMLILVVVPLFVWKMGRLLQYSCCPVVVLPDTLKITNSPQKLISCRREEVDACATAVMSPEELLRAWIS

[4] = target: T1, human IL-20R2, expressed alone on transfected cells (human); experiment: quantitative cell surface AP binding assay on transfected Cos cells
[5] = target: T1, human IL-20R2, expressed alone on transfected cells (human); experiment: quantitative cell surface AP binding assay on transfected Cos-E5 cells (FIG. 3B)
[6] = target: T1, human IL-20R2, expressed alone on transfected cells (human); experiment: in situ cell surface AP staining of transfected Cos-E5 cells (FIG. 3C)
[7] = target: T1, human IL-20R2, expressed alone on transfected cells (human); experiment: in situ cell surface AP staining of transfected Cos cells

Measured: binding

B1: Mob-5-AP (rat Mob-5 fused to alkaline phosphatase) (ligand, UniProt Q9JI24 29-183, looked up, not shown: large carriers)
chain: QEFRFGPCQVTGVVLPELWEAFWTVKNTVKTQDELTSVRLLKPQVLQNVSDAESCYLAHSLLKFYLNTVFKNYHSKIVKFKVLKSFSTLANNFLVIMSKLQPSKDNAMLPISDSARRRFLLYHRTFKQLDIEVALAKAFGEVDILLAWMQNFYQL
binds: [1] | [2] | [3]

B2: human IL-24-AP fusion protein (ligand, UniProt Q13007 52-206, looked up)
chain: QEFHFGPCQVKGVVPQKLWEAFWAVKDTMQAQDNITSARLLQQEVLQNVSDAESCYLVHTLLEFYLKTVFKNYHNRTVEVRTLKSFSTLANNFVLIVSQLQPSQENEMFSIRDSAHRRFLLFRRAFKQLDVEAALTKALGEVDILLTWMQKFYKL
notes: Used as conditioned medium; also called Mob-5-alkaline phosphatase fusion protein; not shown: secreted human placental alkaline phosphatase (AP)
binds: [4] | [5] | [6] | [7]
